The values below come from patent US10640545B2 (THE GOVERNORS OF THE UNIVERSITY OF ALBERTA, priority 2017, dated 2020).

The nature of one data set: peptide synthesis. The following applies: whole synthesis.
Data set [1] is described as follows: general procedure: Fmoc solid-phase peptide synthesis; PyBOP/HOBt/DIPEA or HATU/HOAt/DIPEA. The settings on record: whole synthesis, scale 0.05 mmol.

For the substance “Lys-Phe-Arg-Arg-Gln-Arg-Pro-Arg-D-Leu-Ser-His-Lys-Gly-Pro-Nle-Aib-paraBrPhe”, in “peptide synthesis”, the isolated yield amounted to 9.1%.

In “peptide synthesis”, “Lys-Phe-Arg-Arg-Gln-Arg-Pro-Arg-NMeLeu-Ser-His-Lys-Gly-Pro-Nle-Aib-paraBrPhe” had an isolated yield of 22%.

For “Lys-Phe-Arg-Arg-Gln-Arg-Pro-αMeArg-Leu-Ser-His-Lys-Gly-Pro-Nle-Aib-paraBrPhe”, in the data set “peptide synthesis”, the isolated yield is given as 11%.

In data set [1], “pGlu-Arg-Pro-Arg-D-Leu-Ser-His-Lys-Gly-Pro-Nle-Aib-paraBrPhe” registered an isolated mass of 11.3 mg and an isolated yield of 14%.

With “pGlu-Arg-Pro-Arg-NMeLeu-Ser-His-Lys-Gly-Pro-Nle-Aib-paraBrPhe”, in data set [1], the isolated mass is 6.0 mg and the isolated yield amounted to 7%.

In data set [1], “pGlu-Arg-Pro-αMeArg-Leu-Ser-His-Lys-Gly-Pro-Nle-Aib-paraBrPhe” showed an isolated mass of 8.5 mg and an isolated yield of 11%.
